Data: paper PMC7037472

Molecular target: ThTrx5 fusion protein containing the glutathione-S-transferase (GST) tag (Tamarix hispida)
Assay: affinity purification with mass spectrometry; ThTrx5 GST fusion protein bound to a nickel column (nickel agarose resin beads); about 50 ug total protein of wild-type or ThTrx5 transgenic Arabidopsis leaves (150 mmol/L NaCl, 3 h) incubated 4 h at 4 °C; washed 5 times; buffer 50 mM Tris, 100 mM NaCl, 0.1% Tween-20, 1 mM PMSF, 1 mM DTT, 500 mM imidazole; differential SDS-PAGE bands excised, PMF and MS/MS, SwissProt 57.15; only the target purified

- binding: binds
B1: 2-CYS PEROXIREDOXIN BAS1-LIKE PROTEIN (enzyme, UniProt Q9C5R8 73-273)
chain: KAQADDLPLVGNKAPDFEAEAVFDQEFIKVKLSEYIGKKYVILFFYPLDFTFVCPTEITAFSDRYEEFEKLNTEVLGVSVDSVFSHLAWVQTDRKSGGLGDLNYPLVSDITKSISKSFGVLIPDQGIALRGLFIIDKEGVIQHSTINNLGIGRSVDETMRTLQALQYVQENPDEVCPAGWKPGEKSMKPDPKLSKEYFSAI

- binding: binds
B2: CATALASE 3 (enzyme, UniProt Q42547 1-492)
chain: MDPYKYRPSSAYNAPFYTTNGGAPVSNNISSLTIGERGPVLLEDYHLIEKVANFTRERIPERVVHARGISAKGFFEVTHDISNLTCADFLRAPGVQTPVIVRFSTVVHERASPETMRDIRGFAVKFYTREGNFDLVGNNTPVFFIRDGIQFPDVVHALKPNPKTNIQEYWRILDYMSHLPESLLTWCWMFDDVGIPQDYRHMEGFGVHTYTLIAKSGKVLFVKFHWKPTCGIKNLTDEEAKVVGGANHSHATKDLHDAIASGNYPEWKLFIQTMDPADEDKFDFDPLDVTKIWPEDILPLQPVGRLVLNRTIDNFFNETEQLAFNPGLVVPGIYYSDDKLLQCRIFAYGDTQRHRLGPNYLQLPVNAPKCAHHNNHHEGFMNFMHRDEEINYYPSKFDPVRCAEKVPTPTNSYTGIRTKCVIKKENNFKQAGDRYRSWAPDRQDRFVKRWVEILSEPRLTHEIRGIWISYWSQADRSLGQKLASRLNVRPSI

No constants are given. Whether binding was seen depends on the method and setting. Binding seen in cells or lysates may run through a third protein. Here binding means that the protein was enriched with, or labelled near, the bait; the list need not be complete. One block for each binder: values may come before it.
